PubChem BioAssay AID686937 | Drosophila RNAi Screening Center | 2013

- Assay: 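Knock-downs that reduce output of a secreted reporter enzyme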 (primary screen)
- Cells: Drosophila S2 cells expressing secreted horseradish peroxidase
- Reagents: long dsRNA against Drosophila genes
- Timing: about 5.5 days (5 days dsRNA, then 12 h reporter induction)
- Conditions: reporter expression induced after 5 days of dsRNA, read 12 h later; inducer not stated
- Read-out: 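After 5 days of dsRNA and 12 h of reporter induction, medium peroxidase read by chemiluminescence and scored as per-plate z-score; higher values mean more reporter released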
- Direction: z-score: higher = more reporter secreted into medium
The screen tested about 23,000 reagents; below is a random part of those that have a named target and a result. 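Reduced-secretion tags in replicate 1 do not always agree with the z-scores; no criterion for assigning the tags was given.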 Reagents against one gene are numbered here. A plus sign joins genes that one reagent is predicted to hit. Further read-outs or replicates are left out here. Not stated in the record: the amount of reagent.

Ate1 showed z-score, replicate 1 = -0.48. CG12355 #1 gave z-score, replicate 1 = -2.2. CG12355 #2 scored z-score, replicate 1 = -0.03. After knock-down of spn-D, the record shows z-score, replicate 1 = -0.09. Against KrT95D, the values are z-score, replicate 1 = 0.08. alpha-Est4aPsi scored z-score, replicate 1 = 0.05.

With knock-down of Drgx #1, the record shows z-score, replicate 1 = 0.34. Drgx #2 scored z-score, replicate 1 = 0.21. Against CG32170, the values are z-score, replicate 1 = 0.29. After knock-down of Fitm, the record shows z-score, replicate 1 = 0.1. Silencing of CG31848 gave: z-score, replicate 1 = 0.16. E(spl)mdelta-HLH showed z-score, replicate 1 = 0.48.

CG31869 #1 showed z-score, replicate 1 = -0.06. CG31869 #2 gave z-score, replicate 1 = -0.03. Against PIG-L, the values are z-score, replicate 1 = 0.31. With knock-down of Rcd6 the results were z-score, replicate 1 = 0.38. sle + CG12592 gave z-score, replicate 1 = -0.1. With knock-down of CG11999, the screen gave z-score, replicate 1 = 0.35.

Depletion of mspo came out at: z-score, replicate 1 = -0.15. Depletion of CG13409 came out at: z-score, replicate 1 = 0.31. Daao1 gave z-score, replicate 1 = 0.15. After knock-down of CG31262 the results were z-score, replicate 1 = 0.48. CG9853 #1 showed z-score, replicate 1 = -3.46. CG9853 #2 scored z-score, replicate 1 = 0.21.

Depletion of Lnk came out at: z-score, replicate 1 = 0.25.

Entries above whose gene name starts with D or d (3):
Drgx #1 → z-score, replicate 1: 0.34
Drgx #2 → z-score, replicate 1: 0.21
Daao1 → z-score, replicate 1: 0.15

More reagents:
For CG6470 the deposit lists z-score, replicate 1 = 0.31. For pyd #1 the deposit lists z-score, replicate 1 = 0.44. Depletion of pyd #2 came out at: z-score, replicate 1 = 0.22. After knock-down of pyd #3, the screen gave z-score, replicate 1 = 0.24. Depletion of pyd #4 came out at: z-score, replicate 1 = 0.27. Knock-down of pyd #5 resulted in: z-score, replicate 1 = 0.25.

After knock-down of pyd #6, the screen gave z-score, replicate 1 = 0.35. For pyd #7, the entry reads z-score, replicate 1 = 0.43. Against pyd #8, the values are z-score, replicate 1 = 1.47. 4E-T #1 showed z-score, replicate 1 = 0.26. Depletion of 4E-T #2 came out at: z-score, replicate 1 = 0.31. With knock-down of CG7006, the screen gave z-score, replicate 1 = 0.28.

With knock-down of TyrRII, the record shows z-score, replicate 1 = 0.37. ytr #1 showed z-score, replicate 1 = 0.29. Knock-down of ytr #2 came out at: z-score, replicate 1 = 0.6.
